# Test results published in PubChem BioAssay AID1794844 (National Center for Advancing Translational Sciences (NCATS), 2023).
# Amino acid sequences for entries named in this document (tags omitted). A change or cut given only in a name is not applied to a line headed by its entry.
# UniProt C7C422: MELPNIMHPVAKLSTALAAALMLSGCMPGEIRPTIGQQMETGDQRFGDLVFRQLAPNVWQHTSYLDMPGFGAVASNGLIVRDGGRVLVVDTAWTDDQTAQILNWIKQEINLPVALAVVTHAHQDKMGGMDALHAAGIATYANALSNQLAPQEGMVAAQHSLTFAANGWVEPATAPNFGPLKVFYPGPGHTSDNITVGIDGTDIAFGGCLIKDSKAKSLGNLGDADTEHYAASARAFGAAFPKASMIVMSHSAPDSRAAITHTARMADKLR
# In all, about 2,800 compounds went through this assay and fewer than 10 were called active. Another 7% or so got no clear call; they are omitted. Calls follow the shape of the dose curve; as a rule, active = well fitted inhibition curve with a large enough effect; inconclusive = small, poorly fitted or top-dose-only effect; inactive = no such curve, though single readings can be large or run the other way. The list shows a part of the results.
# Biological target: Metallo-beta-lactamase type 2 (Klebsiella pneumoniae) (UniProt C7C422)
# Test: qHTS to identify inhibitors of the New Delhi Metallo-beta-lactamase (NDM): Nitrocefin screen against the machine-based learning selections. Also: % of control where 0% means no effect.
# Conditions: NDM-1 enzyme, nitrocefin hydrolysis, absorbance 485 nm; at 57.5 µM (top of the series) unless noted
# Source text: Assay Submitter (PI): James Inglese Ph.D., Patricia Dranchak Ph.D., Mahesh Aitha Ph.D. Assay Development and Screening Technology Laboratory (ADST) National Center for Advancing Translational Sciences (NCATS), Rockville, MD National Institute of Health (NIH), Bethesda, Maryland The metallo-beta-lactamases (MBL) are a main antibiotic resistance mechanism evolved by bacteria. There is an urgent clinical need for MBL inhibitors to mitigate this growing threat. To support a machine-based learning study, qHTS has been used to experimentally test inhibitors identified by prediction tools.
# PROTOCOL TABLE (as described by Inglese et al., 2007) SEQUENCE No. (e.g., 1, 2, 3, etc.); […] (e.g., enzyme, Incubation, Reagent, etc.); VALUE; DESCRIPTION Primary Screen 1; NDM-1; 4 uL of 3 nM enzyme [2 nM final] in 50 mM HEPES (pH 7.0), 1 uM […], 0.01% Tween20; Use BioRaptr to dispense into two sets of Aurora black, clear bottom high base 1536-well plates 2; Compounds; 23 nL; Use Pin Tool (Wako) to transfer DMSO control and library compounds in DMSO 3; Incubate; >30 min 4a; Reagent; 2 uL of 50 uM nitrocefin [16.7 uM final] to one set of assay plates 4b; Reagent; 2 uL of 150 uM meropenem [50 uM final] to second set of assay plates 5a; Incubate; 15 min 5b; Incubate; 30 min 6a; Detector; Absorbance at 485 nm (bandwidth = 5 nm, 25 flashes/well) on Tecan Infinity 6b; Detector; Absorbance at 300 nm (bandwidth = 5 nm, 25 flashes/well) on Tecan Infinity NOTES (numbers refer to sequence above) 1; Column 1 of each plate received assay buffer without enzyme and columns 2-48 received enzyme for a final assay concentration of 2 nM. 2; Control plate contained DMSO in columns 1, 2, 3, and 4. 3; Compound interaction with enzyme. 4; Nitrocefin and meropenem substrates were prepared in the same assay buffer as step 1 for a final assay concentration of 16.7 uM and 50 uM, respectively, and added to all wells across respective sets of assay plates. 5; Default reader settings were applied for absorbance read at 485 nm (nitrocefin) or 300 nm (meropenem), bandwidth = 5 nm, 25 flashes/well. References: Inglese J, Shamu CE, Guy RK. 2007. Reporting data from high-throughput screening of small-molecule libraries. Nat Chem Biol. doi:10.1038/nchembio0807-438 Yasgar A, Shinn P, Jadhav A, Auld D, Michael S, Zheng W, Austin CP, Inglese J, Simeonov A. 2008. Compound Management for Quantitative High-Throughput Screening. J Lab Autom 13:79 - 89. doi:10.1016/j.jala.2007.12.004
row,SMILES,"activity, negative = inhibition"
1,CC(=O)c1ccc(NC(=O)OC[C@H]2C[C@@H]3CCN2C[C@@H]3c2cc(-c3cccs3)nn2C)cc1,inactive: -1.4% [at 38.4 µM]
2,Cc1ccc2c(n1)N(C)[C@H](CO)CCN(C1CCCC1)C2,inactive: -0.123% [at 76.7 µM]
3,COc1cc2c(cc1Oc1ccccc1)NC(=O)C21CCN(Cc2cccc(O)c2)CC1,inactive: 4.34%
4,Cn1nc(C(=O)N[C@@H]2COCC[C@@H]2OCc2cscn2)c2ccccc21,inactive: -5.05% [at 38.4 µM]
5,CC(=O)NCCNC(=O)[C@H]1CN2CCC1C[C@@H]2Cn1cc(CSc2ccccc2)nn1 (stereo not given in full),inactive: 10.9% [at 38.4 µM]
6,Cc1nc(C2CCCC2)cc([C@H]2CN3CC[C@H]2C[C@@H]3CNC(=O)CCCC(=O)O)n1,inactive: 10.2%
7,Cc1ccc(S(=O)(=O)NC[C@H]2C[C@@H]3CCN2C[C@@H]3CN2CCN(c3ncccn3)CC2)cc1,inactive: -11.2% [at 38.4 µM]
8,C#CCN(C)C[C@H]1CN2CC[C@H]1C[C@@H]2CNC(=O)NC(C)C,inactive: 4.29%
9,CCNC(=O)NC[C@H]1C[C@@H]2CCN1C[C@@H]2c1cc(-c2ccccc2)nn1C,inactive: 1.6%
10,CN(C[C@H]1CN2CC[C@H]1C[C@@H]2CNS(=O)(=O)c1cccs1)c1ccccc1,inactive: -23.7%
11,COCC(=O)NC[C@H]1C[C@@H]2CCN1C[C@@H]2c1cc(-c2cccs2)nn1C,inactive: 1.82%
12,COCC(=O)NC[C@H]1C[C@@H]2CCN1C[C@@H]2c1cc(-c2ccc(OC)cc2)nn1C,inactive: 6.6%
13,CC(C)(C)c1cn(C[C@H]2CC3CCN2C[C@@H]3C(=O)NCc2ccccc2)nn1 (stereo not given in full),inactive: -5.09%
14,COc1ccc(NC(=O)OC[C@H]2C[C@@H]3CCN2C[C@@H]3c2cc(-c3ccccc3OC)nn2C)cc1,inactive: 7.37% [at 38.4 µM]
15,Cn1nc(-c2ccc(F)cc2)cc1[C@H]1CN2CC[C@H]1C[C@@H]2CNC(=O)COc1ccccc1,inactive: -3.76% [at 38.4 µM]
16,C=C[C@H]1CN2CC[C@H]1C[C@@H]2CNC(=O)c1ccc(C#N)cc1,inactive: -3.37%
17,CC(C)NC(=O)NC[C@H]1C[C@@H]2CCN1C[C@@H]2c1cc(-c2cccs2)nn1C,inactive: -3.05%
18,CC(C)N1C[C@@H]2OCC(=O)N(CC3CC3)[C@@H]2C1,inactive: -1.92% [at 76.7 µM]
19,CN(Cc1ccccc1)C[C@H]1CN2CC[C@H]1C[C@@H]2CNC(=O)Nc1cccc(C#N)c1,inactive: 2.67%
20,O=C(O)c1cn(Cc2ccccc2F)nn1,inactive: -8.24% [at 38.4 µM]
21,CCCS(=O)(=O)NC[C@H]1C[C@@H]2CCN1C[C@@H]2c1cc(-c2cccs2)nn1C,inactive: -0.183%
22,Cc1nc(-c2ccccc2Br)cc([C@H]2CN3CC[C@H]2C[C@@H]3CNC(=O)Nc2ccccc2)n1,inactive: -18.1% [at 38.4 µM]
23,CNCc1cn(C[C@H]2CC3CCN2C[C@@H]3C(=O)Nc2ccccc2)nn1 (stereo not given in full),inactive: -3.55%

# A second format for part of the listing above:
row	SMILES	activity, negative = inhibition
14	COc1ccc(NC(=O)OC[C@H]2C[C@@H]3CCN2C[C@@H]3c2cc(-c3ccccc3OC)nn2C)cc1	inactive: 7.37% [at 38.4 µM]
16	C=C[C@H]1CN2CC[C@H]1C[C@@H]2CNC(=O)c1ccc(C#N)cc1	inactive: -3.37%
21	CCCS(=O)(=O)NC[C@H]1C[C@@H]2CCN1C[C@@H]2c1cc(-c2cccs2)nn1C	inactive: -0.183%

# Going on with the list.

row,SMILES,"activity, negative = inhibition"
1,Cc1nc(-c2ccccc2Br)cc([C@H]2CN3CC[C@H]2C[C@@H]3CNC(=O)c2ccc(N(C)C)cc2)n1,inactive: 0.539% [at 38.4 µM]
2,CCCS(=O)(=O)NC[C@H]1C[C@@H]2CCN1C[C@@H]2CC,inactive: 3.53% [at 76.7 µM]
3,COc1ccccc1N1CCN(C(=O)[C@H]2CN3CCC2C[C@@H]3Cn2cc(C(C)(C)O)nn2)CC1 (stereo not given in full),inactive: 3.42% [at 38.4 µM]
4,Cc1nc(-c2ccccc2)cc([C@H]2CN3CC[C@H]2C[C@@H]3CNC(=O)C2CCC2)n1,inactive: -9.59%
5,O=C(C1CCCCC1)N1C[C@@H]2C[C@H](C1)c1ccc(-c3cccc(C(F)(F)F)c3)c(=O)n1C2,inactive: -11.5% [at 38.4 µM]
6,Cn1nc(-c2ccccc2)cc1[C@H]1CN2CC[C@H]1C[C@@H]2CNC(=O)N1CCOCC1,inactive: -0.912%
7,Cc1ncc2c(n1)C[C@@H]1CC[C@H]2N1C(=O)c1sccc1C,inactive: 1.52% [at 38.4 µM]
8,CCN(CC)C[C@H]1CN2CC[C@H]1C[C@@H]2CNC(=O)Nc1cccc(SC)c1,inactive: -14%
9,C#C[C@H]1CN2CC[C@H]1C[C@@H]2COC(=O)Nc1cc(OC)cc(OC)c1,inactive: -10.4%
10,CC(C)NC(=O)NC[C@H]1C[C@@H]2CCN1C[C@@H]2c1cc(C2CCCCC2)nn1C,inactive: -1.69%
11,Cn1nc(-c2cccs2)cc1[C@H]1CN2CC[C@H]1C[C@@H]2CNC(=O)Nc1ccccc1,inactive: -0.379%
12,CC(=O)NCCNC(=O)[C@H]1CN2CCC1C[C@@H]2Cn1cc(-c2ccc(C(C)(C)C)cc2)nn1 (stereo not given in full),inactive: -7.2% [at 38.4 µM]
13,C=C[C@H]1CN2CC[C@H]1C[C@@H]2CNC(=O)c1cc(OC)c(OC)c(OC)c1,inactive: -3.27%
14,Cc1cccc(OCC(=O)N2[C@H]3CC[C@@H]2c2cnc(-c4ccccc4)nc2C3)c1,inactive: -0.176% [at 38.4 µM]
15,Cc1nc(-c2ccccc2)cc([C@H]2CN3CC[C@H]2C[C@@H]3CNC(=O)c2cccs2)n1,inactive: 4.18%
16,O=C(c1ccc(F)cc1)N1C[C@@H]2C[C@H](C1)c1c(-c3cc4ccccc4s3)ccc(=O)n1C2,inactive: -1.25% [at 38.4 µM]
17,COc1ccc(-c2cc([C@H]3CN4CC[C@H]3C[C@@H]4CNS(=O)(=O)c3ccc(C)cc3)n(C)n2)cc1OC,inactive: 4.34% [at 38.4 µM]
18,COc1cc2c(cc1OCc1ccncc1)NC(=O)C21CCN(Cc2cccc(O)c2)CC1,inactive: -1.5% [at 38.4 µM]
19,CC(C)(C)NC(=O)N1[C@H]2CC[C@@H]1c1cnc(-c3ccccc3)nc1C2,inactive: 4.25% [at 38.4 µM]
20,COc1ccccc1-n1cc(C2=CCN(CCOCCO)CC2)cn1,inactive: 7.53% [at 38.4 µM]
21,Cc1nc(-c2ccc(N(C)C)cc2)cc([C@H]2CN3CC[C@H]2C[C@@H]3COC(=O)NC(C)C)n1,inactive: -0.971% [at 38.4 µM]
22,CC(C)NC(=O)OC[C@H]1C[C@@H]2CCN1C[C@@H]2c1cc(C2CCCC2)nc(-c2ccncc2)n1,inactive: -3.64% [at 38.4 µM]
